# PubChem BioAssay AID1671195, Yale University – 2021
# Screen: 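Regulators of LDL receptor activity judged by labelled LDL uptake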 (primary screen)
# Cells: human Huh7 hepatoma cells
# Knock-down reagent: siRNA pool against human genes, 18 nM
# Time to read-out: about 2 to 2.5 days of knockdown, then 8 h LDL uptake
# Challenge: DiI-labelled LDL at 30 µg/ml for 8 h, in lipoprotein-deficient serum medium
# Read-out: 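Fluorescent LDL signal imaged in cells, scaled to the plate median, robust z-score for each replicate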
# Reading the numbers: robust z-score: higher = more LDL uptake after knockdown
# Call rule: 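Active when two or more replicates show a robust z-score above 2 or below -2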
# The deposit covers about 22,000 reagents; this is an unselected part. About 1,510 of them (6.9%) were called active. 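Active includes knockdowns raising or lowering LDL uptake; positive z-scores mean more uptake, negative mean less.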
target,"robust z-score, replicate 1","robust z-score, replicate 2","robust z-score, replicate 3",activity call
RGN,-0.508,-0.0789,-0.0624,inactive
CHL1,0.509,-0.65,-0.826,inactive
CD82,1.62,2.99,4.73,active
DMRT2,0.597,1.27,1,inactive
AZI2,0.355,0.15,1.4,inactive
PCDHB11,-1.14,-1.05,-1.03,inactive
CYBC1,0.402,-0.692,0.441,inactive
SS18L2,-0.164,0.738,0.121,inactive
HRNR,1.32,0.833,1.2,inactive
COMMD4,-0.455,-1.22,-0.417,inactive
SPRR3,-0.664,-1.31,-0.863,inactive
DCAF4,-1.55,-0.4,0.0328,inactive
AP1AR,-2.05,-1.78,-1.58,inactive
CCDC86,0.3,-0.249,1.41,inactive
KBTBD2,-0.252,-0.109,-1.16,inactive
ATP6V0A4,-0.32,-0.689,-0.0606,inactive
LOC441233 (retired record),1.51,0.947,1.41,inactive
TYRP1,0.452,-0.232,0.597,inactive
SLIT1,-0.0654,-0.228,-0.309,inactive
LYPLA2,-1.02,-0.795,-0.405,inactive
SPATS1,-0.31,0.0541,-0.252,inactive
RPS6KA2,-0.246,0.0143,-0.361,inactive
KIAA0586,-0.448,-0.537,1.65,inactive
HECW1,-0.409,-0.597,0.0449,inactive

Ordered by “robust z-score, replicate 1” (lowest first): 4 of the entries above.
target,"robust z-score, replicate 1","robust z-score, replicate 2","robust z-score, replicate 3",activity call
PCDHB11,-1.14,-1.05,-1.03,inactive
AZI2,0.355,0.15,1.4,inactive
DMRT2,0.597,1.27,1,inactive
CD82,1.62,2.99,4.73,active

The results go on:
target,"robust z-score, replicate 1","robust z-score, replicate 2","robust z-score, replicate 3",activity call
ARRB1,-0.941,-0.779,-1.05,inactive
CORO2A,1.13,0.674,2.51,inactive
ITGB1BP1,-0.135,0.344,-0.172,inactive
LOC389189 (retired record),3.23,2.19,1.76,active
LOC442166 (retired record),1.44,0.87,1.7,inactive
ZNF841,0.96,1.01,1.48,inactive
SCRG1,0.625,-0.775,0.197,inactive
AGK,-0.288,0.58,0.417,inactive
SFI1,2,3.04,1.69,active
THOC1,-0.335,-1.24,0.794,inactive
COX18,0.926,0.259,-0.408,inactive
CCDC13,-0.435,0.0501,0.672,inactive
LOC153134 (retired record),0.18,0.807,0.184,inactive
OR2B3,-0.86,-0.479,-0.498,inactive
SLC26A8,-0.6,-1.01,-0.176,inactive
LOC441388 (retired record),1.13,0.443,0.648,inactive
KLRD1,1.65,1.83,2.12,inactive
CDC42BPB,1.57,0.955,1.62,inactive
LYLDT1,0.644,0.14,-0.376,inactive
IFNA2,0.114,-0.164,0.505,inactive
CAPN7,0.263,0.988,0.905,inactive
TTYH1,-0.902,-0.551,-0.399,inactive
LOC389269 (retired record),-0.617,-0.947,-0.605,inactive
STK10,1.79,2.03,1.66,inactive
TRMT44,0.825,1.57,0.439,inactive
PKD1,-0.12,0.606,-0.174,inactive
FSHB,2.74,0.34,1.69,inactive
SNTA1,1.56,0.442,0.797,inactive
OTOGL,-1.28,-0.972,-0.829,inactive
FBXO39,1.08,3.08,1.45,inactive
NUCLEOLIN,-0.0922,-0.127,0.163,inactive
LOC440003 (retired record),1.96,1.73,1.57,inactive
LINC00868,2.2,1.65,2.37,active
LOC389841 (retired record),1.82,1.54,1.2,inactive
RHNO1,0.719,0.731,1.47,inactive
ISG20L2,0.579,1.17,0.238,inactive
LCMT1,0.688,0.258,0.655,inactive
LOC401887 (retired record),0.256,0.0859,-0.0753,inactive
COP1,1.66,1.45,2.45,inactive
GPR88,0.936,-0.132,-0.377,inactive
IAPP,-0.521,0.719,0.0681,inactive
UTS2B,-0.0654,0.0626,-0.447,inactive
ENDOV,0.982,1.56,2.4,inactive
ALDOA,-0.499,-0.413,-0.665,inactive
